Test results published in PubChem BioAssay AID493014 (National Center for Advancing Translational Sciences (NCATS), 2011).
Some of the results follow. Further columns of the screen follow, without active or inactive calls. Most of these compounds were active or inconclusive in the main read-out, so they are no random draw. Potencies come from curve fits of mixed quality, noted in brackets.

Test: qHTS Assay to Find Inhibitors of Chronic Active B-Cell Receptor Signaling
Details: ABC-DLBCL IkBa-CBG/CBR reporter, luminescence ratio (green luciferase fused to IkBa over red control in TMD8 lymphoma cells), 4 h
Method in brief: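 Concentration-response series (up to 46 uM) were applied to TMD8 dual-reporter cells for 4 h at 37C with doxycycline. Green/red ratio, after filter-overlap correction, defined %Activity; red signal alone was normalised to basal cells and zero luminescence.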

[1] = measured here: CBR red luminescence, cell number
[2] = measured here: IkBa-CBG green luminescence

SMILES	AC50 [1]	AC50 [2]
Cn1nc(/C=C/c2ccccc2)ccc1=O	14.1 µM [rising, single point]	–
Cc1cc(C)cc(NC(=O)CN2CCCN(S(=O)(=O)c3ccc(Br)s3)CC2)c1	2.91 µM [falling, full curve, poor fit]	–
CCOC(=O)C(=CNc1cc(Cl)c(-c2ccco2)c(Cl)c1)C(=O)OCC	31.6 µM [falling, single point]	–
O=S(=O)(c1ccc(F)cc1)N1CN(Cc2ccco2)c2nc3ccccc3nc21	32.6 µM [falling, single point]	–
Cc1c(O)nc(SCC(=O)Nc2cccc(C(F)(F)F)c2)n(-c2ccccc2)c1=O	11.2 µM [falling, partial curve, poor fit]	–
CCc1ccc(CN(C)C(=O)c2cc(COc3cccc4cnccc34)on2)cc1	10 µM [falling, partial curve]	–
Cc1ccc(-c2nn(-c3ccccc3)cc2/C=C/C(=O)Nc2nccs2)cc1	5.17 µM [falling, partial curve, poor fit]	–
Cc1cc(-c2n[nH]c(=S)n2/N=C/c2cc([N+](=O)[O-])ccc2Cl)n[nH]1	25.9 µM [falling, single point]	29.1 µM [falling, single point]
O=C(CCc1ccccc1)Nc1ccc(N2CCOCC2)c(Cl)c1	1.46 µM [rising, full curve]	–
Cc1ccc(O)c(C(=O)c2coc(=N)c(C(=O)NC(C)C)c2)c1	0.103 µM [falling, full curve, poor fit]	–
CCOC(=O)c1c(C)[nH]c(C(=O)CSc2nnnn2-c2ccc(C)cc2)c1C	16.4 µM [rising, single point]	–
CCCC/C=C1\CCc2c([nH]c3ccccc23)C1=O	35.5 µM [falling, single point]	–
Cc1cc(OC(C)C(=O)N/N=C/CC(C)c2ccccc2)ccc1Cl (stereo unspecified)	23.1 µM [rising, single point]	–
CCCCn1c(=S)[nH]c2c(oc3ccc(Cl)cc32)c1=O	1.84 µM [falling, full curve]	–
CCC(Oc1ccccc1)C(=O)Nc1ccccc1N1CCCC1 (stereo unspecified)	35.5 µM [rising, single point]	–
Cc1cccc2sc(NNC(=O)c3cc(-c4cccs4)nc4ccccc34)nc12	3.66 µM [rising, single point]	–
O=C(NCC1CCCCC1)c1cccc(-c2ccc(O)cc2)c1	35.5 µM [falling, single point]	–
NS(=O)(=O)c1cccc(NS(=O)(=O)c2ccc(/C=C/C(=O)OCC(=O)c3ccc(Br)cc3)cc2)c1	31.6 µM [falling, single point]	–
CCn1c(=O)c(C(=O)NNC(=O)c2cccc(Cl)c2)c(O)c2ccccc21	5.01 µM [falling, full curve]	–
Cc1ccc(-n2ncc3c(N(C)C)ncnc32)cc1Cl	0.794 µM [rising, full curve, poor fit]	–

SMILES	AC50 [1]	AC50 [2]
COc1ccc(-n2c(Cc3cccn3C)nnc2SCC(=O)NCc2ccccc2Cl)cc1	25.9 µM [falling, partial curve, poor fit]	–
O=C(NC1CCCC1)c1ccc(Br)c(S(=O)(=O)N2CCCCC2)c1	35.5 µM [rising, single point]	–
CC(=O)Nc1cccc(NC(=O)c2ccc3c(c2)CCN3S(C)(=O)=O)c1	5.62 µM [falling, partial curve, poor fit]	–
O=C(CSc1nnc(-c2ccc(F)cc2)c2ccccc12)Nc1ccccc1Cl	20.6 µM [falling, single point]	–
CCOc1ncccc1C(=O)Nc1cccc(-c2nnc3n2CCCCC3)c1	14.1 µM [falling, partial curve, poor fit]	–
CCc1nc2ccccc2c(C(=O)OCC(=O)Nc2ccc(NC(C)=O)cc2)c1C	23.1 µM [falling, single point]	–
COc1ccc(NC(=O)C(=O)Nc2cccc3ccccc23)c(OC)c1	0.794 µM [falling, full curve]	–
O=C(NNC(=S)Nc1ccccc1)c1ccc(O)cc1	7.08 µM [falling, full curve]	–
CN1CCc2c(sc(NC(=O)c3ccc([N+](=O)[O-])o3)c2C(N)=O)C1	0.447 µM [rising, full curve]	–
Cc1ccc(S(=O)(=O)NNC(=O)c2sc3nc(C)cc(C)c3c2-n2cccc2)cc1	16.4 µM [falling, partial curve, poor fit]	–
C=CCn1c(=O)c2c(C)c(C)sc2n2c(Nc3ccc(OC)cc3)nnc12	3.16 µM [falling, single point]	–
Brc1ccc(-c2nnc(-c3ccco3)o2)cc1	0.178 µM [rising, full curve, poor fit]	–
Cc1ccc(N(C(=O)c2csnn2)C(C(=O)NC2CCCCC2)c2ccco2)cc1 (stereo unspecified)	3.98 µM [falling, partial curve, poor fit]	–
CN(CC(=O)Nc1ccc(Cl)c(C(F)(F)F)c1)C(=O)C1(c2ccccc2)CC1	16.4 µM [falling, single point]	25.9 µM [rising, partial curve, poor fit]
Cc1cc(C)cc(Oc2nc3ccccn3c(=O)c2/C=C(\C#N)C(=O)NC2CCS(=O)(=O)C2)c1 (stereo unspecified)	22.4 µM [falling, partial curve, poor fit]	–
Cc1cc(C)cc(NC(=O)c2cccc(NC(=O)C3C4CC5OC(=O)C3C5C4)c2)c1 (stereo unspecified)	10.3 µM [falling, partial curve, poor fit]	–
O=C1c2ccccc2NC(c2ccco2)N1O (stereo unspecified)	4.11 µM [rising, single point]	–
COC(=O)Nc1nc2ccc(C(=O)c3ccc(F)cc3)cc2[nH]1	–	2.82 µM [falling, partial curve, poor fit]
Cc1ccc2nc(-c3ccc(N4C(=O)CC(N5CCN(CCO)CC5)C4=O)cc3)sc2c1 (stereo unspecified)	32.6 µM [falling, partial curve, poor fit]	–

In the list so far, 2 contain a CF3 group.
SMILES	AC50 [1]	AC50 [2]
Cc1c(O)nc(SCC(=O)Nc2cccc(C(F)(F)F)c2)n(-c2ccccc2)c1=O	11.2 µM [falling, partial curve, poor fit]	–
CN(CC(=O)Nc1ccc(Cl)c(C(F)(F)F)c1)C(=O)C1(c2ccccc2)CC1	16.4 µM [falling, single point]	25.9 µM [rising, partial curve, poor fit]
